Measurements reported in PubChem BioAssay AID504764 (Drosophila RNAi Screening Center, 2011).
Assay: 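Genome-wide screen for regulators of Notch-driven gene expression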 (primary screen). Cells: Drosophila Kc167 cells. Reagent: long dsRNA against Drosophila genes. Time to read-out: about 5 days (4 days dsRNA, then 24 h after transfection). Treatment: transfection of constitutively active membrane-tethered Notch lacking the extracellular domain, read 24 h later. Measurement: 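Firefly luciferase from an E(spl)m3 reporter with active Notch, plus control-promoter and uninduced reporter wells for normalisation; unnormalised counts, duplicate wells a and b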. Reading the numbers: induced reporter light, run 1, well a and induced reporter light, run 1, well b: higher = more light from the Notch target reporter with active Notch; control promoter light, run 1, well a and control promoter light, run 1, well b: higher = more light from the viral control promoter (cell number, transfection, viability); uninduced reporter light, run 1, well a: higher = more light from the Notch target reporter without active Notch. Rule for the call: 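Wells with low control signal or poorly matching duplicates excluded; duplicates averaged; per source plate, z beyond ±2 for induced/control log2 ratio or beyond ±1.8 for induced/uninduced marks a hit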. Meaning of the calls: active = modifier hit (raised or lowered Notch signal); inactive = not a hit.
The deposit covers about 22,000 reagents; this is an unselected part of those with a known target gene and a result. In the full data, 403 (1.9%) got an active call. 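Unnormalised raw counts per well; ratio z-scores behind the hit calls and whether each hit raises or lowers signal are not deposited.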 The numbers tell different reagents against one gene apart. A plus sign joins genes that one reagent is predicted to hit. Reagent sequences are not shown. Not stated in the record: the amount of reagent.

Target gene	dsRNA no.	induced reporter light, run 1, well a	induced reporter light, run 1, well b	control promoter light, run 1, well a	control promoter light, run 1, well b	uninduced reporter light, run 1, well a	activity call
CG12128 + CG1407	1	1.06e5	93555	1.10e5	1.08e5	10260	inactive
CrzR	1	2.32e5	2.09e5	2.79e5	1.92e5	14042	inactive
CrzR	2	2.66e5	1.51e5	2.85e5	1.76e5	10010	inactive
eIF3f2	1	2.00e5	1.72e5	1.79e5	1.90e5	17060	inactive
Mob2	1	71580	74835	51595	60795	7695	inactive
Mob2	2	2.10e5	1.85e5	1.90e5	1.79e5	17305	inactive
Mob2	3	62185	58165	32940	12920	8125	inactive
modSP	1	2.70e5	2.79e5	2.40e5	2.49e5	19995	inactive
modSP	2	2.42e5	2.52e5	2.65e5	2.52e5	16275	inactive
CG13492	1	48080	65630	52765	58385	2880	inactive
CG7963	1	91550	1.02e5	78970	62945	6615	inactive
CG32281	1	1.31e5	1.30e5	98090	62455	11905	inactive
CG8475	1	1.13e5	1.59e5	1.33e5	1.59e5	13665	inactive
Six4	1	48895	42690	45310	43700	2688	inactive
Tep2	1	1.74e5	1.66e5	2.00e5	1.96e5	8435	inactive
Tep2	2	1.93e5	2.02e5	1.84e5	2.29e5	8488	inactive
CG3704	1	88980	87380	1.22e5	1.13e5	6085	inactive
CG3704	2	85750	96355	1.27e5	1.01e5	6465	inactive
CG14929 + CG4970	1	1.04e5	1.37e5	71940	81180	16215	inactive
CG14929 + CG4970	2	1.45e5	1.41e5	75850	1.03e5	16328	inactive
CG43347	1	1.01e5	86845	1.79e5	1.02e5	8275	inactive
CG43347	2	1.20e5	1.15e5	1.80e5	1.85e5	8945	inactive
CG43347	3						inactive
simj	1	96575	1.06e5	62250	36665	10650	inactive
Cpr65Ax2 + Cpr65Ax1	1	1.46e5	1.37e5	1.81e5	1.56e5	10835	inactive
Cpr65Ax2 + Cpr65Ax1	2	2.11e5	2.29e5	2.10e5	1.96e5	11010	inactive
CCT1	1	32980	33875	37180	33690	3460	inactive
Vha16-2	1	1.31e5	1.34e5	1.84e5	1.78e5	8265	inactive
eIF4G2	1	2.11e5	1.93e5	2.29e5	2.53e5	16510	inactive
CG6481	1	1.12e5	1.21e5	1.04e5	88885	13050	inactive
wap	1	1.22e5	1.10e5	99350	49330	10805	inactive

Quoted from the entries so far for reference:
Target gene	dsRNA no.	induced reporter light, run 1, well a	induced reporter light, run 1, well b	control promoter light, run 1, well a	control promoter light, run 1, well b	uninduced reporter light, run 1, well a	activity call
CG43347	2	1.20e5	1.15e5	1.80e5	1.85e5	8945	inactive
CG43347	3						inactive
simj	1	96575	1.06e5	62250	36665	10650	inactive
Cpr65Ax2 + Cpr65Ax1	1	1.46e5	1.37e5	1.81e5	1.56e5	10835	inactive
Cpr65Ax2 + Cpr65Ax1	2	2.11e5	2.29e5	2.10e5	1.96e5	11010	inactive

The listing continues.
Target gene	dsRNA no.	induced reporter light, run 1, well a	induced reporter light, run 1, well b	control promoter light, run 1, well a	control promoter light, run 1, well b	uninduced reporter light, run 1, well a	activity call
nAChRalpha1	1	31260	29775	25945	28360	6345	inactive
nAChRalpha1	2	17400	18365	20410	22020	3910	inactive
nAChRalpha1	3	2.11e5	2.36e5	2.01e5	2.03e5	20385	inactive
nAChRalpha1	4	73340	71185	87340	95940	6605	inactive
CG17029	1	1.84e5	1.64e5	1.92e5	1.68e5	7005	inactive
Gr28b	1	1.51e5	1.35e5	1.23e5	1.06e5	9115	inactive
Gr28b	2	1.19e5	1.03e5	1.21e5	77430	5820	inactive
alpha-Est1	1	1.66e5	1.31e5	1.04e5	86095	11550	inactive
Osi24	1	76650	69535	66925	53565	7565	inactive
CG10064	1	1.86e5	2.43e5	1.93e5	2.01e5	9660	inactive
CG34166	1	1.86e5	1.62e5	2.44e5	2.36e5	14780	active
CG14718	1	1.49e5	1.20e5	87785	77490	9175	inactive
dmrt11E	1	1.27e5	1.17e5	1.89e5	1.97e5	8428	inactive
Nop56	1	46500	47140	79000	62640	3625	inactive
CG16926	1	96405	83910	1.89e5	2.16e5	8030	inactive
PGRP-LD + Cralbp + Pmi	1	1.75e5	2.21e5	1.86e5	1.95e5	11875	inactive
RhoGAP1A	1	83840	98180	1.03e5	1.19e5	12030	inactive
RhoGAP1A	2	97585	93885	1.12e5	1.18e5	12000	inactive
CG6738	1	1.74e5	1.58e5	2.36e5	2.49e5	15155	inactive
Rx	1	54660	84340	58250	78450	7290	inactive
Rx	2	41915	38105	42280	65220	2575	inactive
pkaap	1	1.17e5	1.34e5	1.37e5	1.59e5	10455	inactive
Nt5c	1	3.22e5	2.51e5	1.90e5	1.58e5	16265	active
TTLL6B	1	1.24e5	1.26e5	1.87e5	1.75e5	10760	inactive
CG18528	1	1.84e5	1.63e5	2.09e5	1.93e5	15230	inactive
HtrA2	1	2.52e5	2.57e5	1.86e5	1.94e5	16375	inactive
Def	1	1.72e5	1.59e5	1.93e5	2.15e5	13415	inactive
CG15861	1	1.37e5	1.62e5	1.77e5	1.33e5	11975	inactive
blp	1	1.48e5	1.44e5	1.54e5	1.43e5	13140	inactive
Ama	1	1.41e5	1.45e5	98090	77280	11745	inactive
CG3081	1	1.79e5	1.61e5	2.81e5	3.20e5	12900	inactive
CG9147	1	1.79e5	1.75e5	1.88e5	1.84e5	8482	inactive
Dif	1	1.46e5	1.60e5	1.52e5	1.13e5	11460	active
